Some of the results follow. Most entries show no effect beyond the scatter of the controls.

The chains behind the UniProt entries cited, without tags or fusion partners. Where a name states a change or a piece, a line headed by the entry shows the natural chain unless it says otherwise.
UniProt P55265: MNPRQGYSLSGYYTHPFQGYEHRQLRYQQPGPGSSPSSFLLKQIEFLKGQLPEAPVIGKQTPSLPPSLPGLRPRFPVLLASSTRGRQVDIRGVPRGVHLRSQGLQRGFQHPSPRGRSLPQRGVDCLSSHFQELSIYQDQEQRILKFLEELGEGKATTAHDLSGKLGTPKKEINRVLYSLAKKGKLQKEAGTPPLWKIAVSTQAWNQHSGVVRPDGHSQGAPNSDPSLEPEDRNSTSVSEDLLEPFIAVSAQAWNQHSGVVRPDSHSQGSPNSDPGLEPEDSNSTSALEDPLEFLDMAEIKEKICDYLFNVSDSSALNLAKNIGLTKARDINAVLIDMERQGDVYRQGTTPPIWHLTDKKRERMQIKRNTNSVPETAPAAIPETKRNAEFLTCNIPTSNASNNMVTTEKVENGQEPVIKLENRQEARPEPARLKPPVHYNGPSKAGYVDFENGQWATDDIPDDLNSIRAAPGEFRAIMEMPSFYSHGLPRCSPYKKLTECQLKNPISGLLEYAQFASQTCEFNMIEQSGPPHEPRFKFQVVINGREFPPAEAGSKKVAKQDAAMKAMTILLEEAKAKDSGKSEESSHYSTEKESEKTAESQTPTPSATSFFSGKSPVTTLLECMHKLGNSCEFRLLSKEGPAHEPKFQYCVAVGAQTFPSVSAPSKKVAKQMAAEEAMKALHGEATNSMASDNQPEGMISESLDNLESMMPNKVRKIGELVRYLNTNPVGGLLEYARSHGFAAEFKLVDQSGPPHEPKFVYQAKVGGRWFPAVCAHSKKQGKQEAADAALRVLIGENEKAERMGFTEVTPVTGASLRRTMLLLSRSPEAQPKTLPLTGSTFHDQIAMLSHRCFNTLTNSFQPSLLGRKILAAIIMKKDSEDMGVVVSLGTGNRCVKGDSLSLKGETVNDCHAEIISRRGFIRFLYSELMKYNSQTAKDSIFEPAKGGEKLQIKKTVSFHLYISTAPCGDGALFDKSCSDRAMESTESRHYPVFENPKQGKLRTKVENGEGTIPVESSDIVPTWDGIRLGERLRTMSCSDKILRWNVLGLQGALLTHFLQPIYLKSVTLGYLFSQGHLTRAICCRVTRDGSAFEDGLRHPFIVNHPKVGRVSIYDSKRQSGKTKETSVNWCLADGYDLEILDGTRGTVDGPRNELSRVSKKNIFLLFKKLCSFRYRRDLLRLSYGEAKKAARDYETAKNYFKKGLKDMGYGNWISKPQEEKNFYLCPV
UniProt P58012: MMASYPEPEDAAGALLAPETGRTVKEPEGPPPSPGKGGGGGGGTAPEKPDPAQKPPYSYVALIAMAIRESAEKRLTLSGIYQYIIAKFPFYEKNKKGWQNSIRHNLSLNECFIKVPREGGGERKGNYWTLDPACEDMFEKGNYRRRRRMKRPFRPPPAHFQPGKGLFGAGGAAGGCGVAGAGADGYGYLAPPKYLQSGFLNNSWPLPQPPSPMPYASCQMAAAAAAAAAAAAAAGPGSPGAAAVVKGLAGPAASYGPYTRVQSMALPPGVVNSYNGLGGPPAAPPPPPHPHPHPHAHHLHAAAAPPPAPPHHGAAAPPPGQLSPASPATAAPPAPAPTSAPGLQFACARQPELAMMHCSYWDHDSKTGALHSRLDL
UniProt P78395, whole entry: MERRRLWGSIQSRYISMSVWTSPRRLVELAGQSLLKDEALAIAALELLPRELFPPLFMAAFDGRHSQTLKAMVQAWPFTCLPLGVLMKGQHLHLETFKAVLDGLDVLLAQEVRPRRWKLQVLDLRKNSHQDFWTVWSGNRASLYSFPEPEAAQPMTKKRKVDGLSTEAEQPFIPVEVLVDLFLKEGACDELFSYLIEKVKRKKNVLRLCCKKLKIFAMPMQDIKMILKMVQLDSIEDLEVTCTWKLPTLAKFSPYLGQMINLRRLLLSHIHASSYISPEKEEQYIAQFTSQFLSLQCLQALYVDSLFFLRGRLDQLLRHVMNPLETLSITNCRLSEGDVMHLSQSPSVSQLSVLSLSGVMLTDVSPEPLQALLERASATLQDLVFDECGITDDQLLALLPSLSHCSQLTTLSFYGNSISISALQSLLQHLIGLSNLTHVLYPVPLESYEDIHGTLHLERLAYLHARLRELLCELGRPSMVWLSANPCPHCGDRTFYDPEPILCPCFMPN
UniProt P61129: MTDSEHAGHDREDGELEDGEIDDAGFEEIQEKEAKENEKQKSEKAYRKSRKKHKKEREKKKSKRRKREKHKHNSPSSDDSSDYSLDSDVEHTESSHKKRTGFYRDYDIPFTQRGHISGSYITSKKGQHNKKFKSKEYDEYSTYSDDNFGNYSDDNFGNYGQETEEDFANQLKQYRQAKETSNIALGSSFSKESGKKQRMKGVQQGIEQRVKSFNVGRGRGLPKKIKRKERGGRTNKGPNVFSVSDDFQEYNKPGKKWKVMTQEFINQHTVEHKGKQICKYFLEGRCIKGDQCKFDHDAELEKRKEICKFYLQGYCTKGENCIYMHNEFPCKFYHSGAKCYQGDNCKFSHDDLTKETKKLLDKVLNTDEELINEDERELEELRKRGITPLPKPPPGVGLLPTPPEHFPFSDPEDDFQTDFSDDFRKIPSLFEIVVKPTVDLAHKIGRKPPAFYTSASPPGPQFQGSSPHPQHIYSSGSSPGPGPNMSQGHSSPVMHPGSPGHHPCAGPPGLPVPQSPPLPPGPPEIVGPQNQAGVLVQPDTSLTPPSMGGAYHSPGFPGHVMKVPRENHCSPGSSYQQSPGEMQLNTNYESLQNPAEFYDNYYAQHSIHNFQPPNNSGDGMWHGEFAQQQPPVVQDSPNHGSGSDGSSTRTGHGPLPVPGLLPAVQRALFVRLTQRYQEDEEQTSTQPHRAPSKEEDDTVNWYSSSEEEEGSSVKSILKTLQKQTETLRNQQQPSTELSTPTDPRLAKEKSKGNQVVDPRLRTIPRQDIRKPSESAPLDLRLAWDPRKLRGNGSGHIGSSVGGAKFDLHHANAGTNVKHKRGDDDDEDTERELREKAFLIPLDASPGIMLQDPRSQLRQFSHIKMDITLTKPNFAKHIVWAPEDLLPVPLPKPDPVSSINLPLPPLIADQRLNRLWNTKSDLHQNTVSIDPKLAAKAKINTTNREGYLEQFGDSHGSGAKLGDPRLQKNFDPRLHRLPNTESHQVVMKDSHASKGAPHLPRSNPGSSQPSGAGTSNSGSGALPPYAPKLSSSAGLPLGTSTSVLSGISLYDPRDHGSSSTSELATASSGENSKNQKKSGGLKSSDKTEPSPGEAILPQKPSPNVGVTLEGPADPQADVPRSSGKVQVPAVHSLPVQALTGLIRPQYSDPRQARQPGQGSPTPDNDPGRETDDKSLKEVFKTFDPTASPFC
UniProt P56556, whole entry: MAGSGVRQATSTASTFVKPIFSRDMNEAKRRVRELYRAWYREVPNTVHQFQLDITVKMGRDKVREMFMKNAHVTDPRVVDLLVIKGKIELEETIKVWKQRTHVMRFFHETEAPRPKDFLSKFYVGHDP
UniProt P57076: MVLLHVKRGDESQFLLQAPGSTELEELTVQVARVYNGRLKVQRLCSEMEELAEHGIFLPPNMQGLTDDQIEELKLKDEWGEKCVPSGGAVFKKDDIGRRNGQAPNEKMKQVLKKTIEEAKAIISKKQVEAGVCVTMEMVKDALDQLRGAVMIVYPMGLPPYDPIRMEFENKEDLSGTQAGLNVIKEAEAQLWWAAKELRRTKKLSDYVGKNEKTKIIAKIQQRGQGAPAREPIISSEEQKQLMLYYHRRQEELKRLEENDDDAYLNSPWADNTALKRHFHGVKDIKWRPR
UniProt P60981: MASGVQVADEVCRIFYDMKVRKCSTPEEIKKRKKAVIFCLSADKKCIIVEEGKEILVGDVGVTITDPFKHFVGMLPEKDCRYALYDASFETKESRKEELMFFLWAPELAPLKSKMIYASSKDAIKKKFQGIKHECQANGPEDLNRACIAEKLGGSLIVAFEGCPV
UniProt P62942, whole entry: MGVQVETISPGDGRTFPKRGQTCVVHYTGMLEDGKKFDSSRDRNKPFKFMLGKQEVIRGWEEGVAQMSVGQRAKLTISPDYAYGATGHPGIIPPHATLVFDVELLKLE
UniProt P55011: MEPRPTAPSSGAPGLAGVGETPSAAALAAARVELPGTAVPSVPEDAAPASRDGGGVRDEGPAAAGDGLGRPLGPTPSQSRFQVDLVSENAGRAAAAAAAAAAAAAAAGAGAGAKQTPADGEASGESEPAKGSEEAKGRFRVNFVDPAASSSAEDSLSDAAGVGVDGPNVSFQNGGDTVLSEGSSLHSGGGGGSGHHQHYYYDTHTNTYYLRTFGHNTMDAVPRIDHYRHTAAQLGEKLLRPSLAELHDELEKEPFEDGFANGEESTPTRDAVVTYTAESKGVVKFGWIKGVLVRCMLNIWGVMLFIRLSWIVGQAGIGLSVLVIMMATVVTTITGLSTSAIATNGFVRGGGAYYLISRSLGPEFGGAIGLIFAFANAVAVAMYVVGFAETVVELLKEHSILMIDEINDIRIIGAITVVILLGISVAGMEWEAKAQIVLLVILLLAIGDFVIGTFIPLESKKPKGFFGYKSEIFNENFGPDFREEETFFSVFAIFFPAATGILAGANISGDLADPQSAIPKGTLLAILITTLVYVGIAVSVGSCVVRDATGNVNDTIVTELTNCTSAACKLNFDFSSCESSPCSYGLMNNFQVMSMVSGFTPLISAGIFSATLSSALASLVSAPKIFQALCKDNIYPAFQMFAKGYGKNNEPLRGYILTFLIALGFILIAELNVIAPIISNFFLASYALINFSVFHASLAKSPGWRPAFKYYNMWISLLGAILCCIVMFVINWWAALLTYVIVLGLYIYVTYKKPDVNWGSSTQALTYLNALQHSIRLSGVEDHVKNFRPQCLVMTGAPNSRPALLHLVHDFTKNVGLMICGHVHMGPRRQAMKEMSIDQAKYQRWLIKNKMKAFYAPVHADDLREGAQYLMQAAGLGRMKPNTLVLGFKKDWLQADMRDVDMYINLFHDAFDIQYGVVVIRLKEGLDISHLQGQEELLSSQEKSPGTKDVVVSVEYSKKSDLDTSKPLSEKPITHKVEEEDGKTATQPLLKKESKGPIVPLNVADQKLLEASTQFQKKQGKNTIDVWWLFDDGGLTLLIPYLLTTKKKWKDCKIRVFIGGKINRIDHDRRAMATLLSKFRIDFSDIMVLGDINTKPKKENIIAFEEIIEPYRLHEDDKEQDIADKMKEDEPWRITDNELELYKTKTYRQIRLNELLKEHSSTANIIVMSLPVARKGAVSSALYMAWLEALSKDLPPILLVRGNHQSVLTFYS
UniProt P59817: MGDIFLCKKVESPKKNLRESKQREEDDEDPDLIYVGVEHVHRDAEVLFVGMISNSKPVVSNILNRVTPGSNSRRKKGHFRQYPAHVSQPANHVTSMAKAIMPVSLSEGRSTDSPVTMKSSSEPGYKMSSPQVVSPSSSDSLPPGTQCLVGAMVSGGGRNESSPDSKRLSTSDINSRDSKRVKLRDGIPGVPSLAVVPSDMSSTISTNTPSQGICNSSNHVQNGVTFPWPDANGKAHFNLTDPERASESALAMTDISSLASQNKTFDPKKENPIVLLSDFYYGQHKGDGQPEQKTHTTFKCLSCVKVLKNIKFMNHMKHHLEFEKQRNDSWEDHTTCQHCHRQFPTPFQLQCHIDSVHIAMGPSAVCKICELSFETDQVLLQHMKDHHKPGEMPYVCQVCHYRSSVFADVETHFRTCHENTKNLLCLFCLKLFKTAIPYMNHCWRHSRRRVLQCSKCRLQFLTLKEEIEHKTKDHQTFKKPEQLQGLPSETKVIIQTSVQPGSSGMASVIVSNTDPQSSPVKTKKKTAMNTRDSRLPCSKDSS
UniProt P61019: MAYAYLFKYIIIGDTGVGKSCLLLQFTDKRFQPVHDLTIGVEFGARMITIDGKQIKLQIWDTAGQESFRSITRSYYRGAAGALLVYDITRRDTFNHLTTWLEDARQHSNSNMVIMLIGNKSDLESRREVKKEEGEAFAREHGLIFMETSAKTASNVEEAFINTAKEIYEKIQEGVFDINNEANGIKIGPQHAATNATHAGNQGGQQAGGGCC
UniProt P62258: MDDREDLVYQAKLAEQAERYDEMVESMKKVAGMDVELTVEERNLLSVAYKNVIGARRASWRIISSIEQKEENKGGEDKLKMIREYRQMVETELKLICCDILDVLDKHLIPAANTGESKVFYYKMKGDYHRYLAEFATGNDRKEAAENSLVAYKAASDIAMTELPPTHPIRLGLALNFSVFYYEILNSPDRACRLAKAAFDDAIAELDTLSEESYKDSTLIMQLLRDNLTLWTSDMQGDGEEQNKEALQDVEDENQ
UniProt P61163, whole entry: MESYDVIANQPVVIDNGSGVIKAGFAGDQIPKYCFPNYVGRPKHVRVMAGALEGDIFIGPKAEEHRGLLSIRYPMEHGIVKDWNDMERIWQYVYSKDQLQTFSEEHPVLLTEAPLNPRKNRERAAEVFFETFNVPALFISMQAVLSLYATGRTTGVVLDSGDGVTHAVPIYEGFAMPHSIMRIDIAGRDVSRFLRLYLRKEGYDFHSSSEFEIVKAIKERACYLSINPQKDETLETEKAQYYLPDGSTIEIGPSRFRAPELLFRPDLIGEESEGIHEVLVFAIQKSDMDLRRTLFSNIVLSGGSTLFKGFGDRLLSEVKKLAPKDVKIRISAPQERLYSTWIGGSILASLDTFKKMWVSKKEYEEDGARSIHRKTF

Compound in the assay: Cc1nc(Nc2ncc(C(=O)Nc3c(C)cccc3Cl)s2)cc(N2CCN(CCO)CC2)n1 [dasatinib]
As to the kind of experiment: log2 fold change of tryptic peptide abundance, ligand vs vehicle (limited proteolysis) (log2 ratio); higher = more trypsin-susceptible (destabilized). The settings on record: ligand concentration: 5 uM; sample: K562 cleared lysate.
On to “UniProt P62249 (peptide sequence: VKGGGHVAQIYAIRQSISK, peptide start residue: 72)”, for which the log2 fold change worked out at 0.65. Consider “MRPS25 (peptide sequence: KFVFFNIPQIQYK, peptide start residue: 46) (UniProt P82663)”, for which the log2 fold change is 0.382. Consider “BTN3A2 (peptide sequence: DGITAGK, peptide start residue: 102) (UniProt P78410)”, for which the log2 fold change is -0.0907. For “UniProt P62263 (peptide sequence: ADRDESSPYAAMLAAQDVAQRCK, peptide start residue: 64)”, the log2 fold change turned out to be 0.115. In the case of “UniProt P62304 (peptide sequence: VMVQPINLIFR, peptide start residue: 13)”, the log2 fold change was -0.0728. With “ADAR (peptide sequence: QGDVYRQGTTPPIWHLTDK, peptide start residue: 340) (UniProt P55265)”, the log2 fold change is -0.116. With “AP1S2 (peptide sequence: ELVQTVLAR, peptide start residue: 33) (UniProt P56377)”, the log2 fold change was -0.372.

Regarding “FOXL2 (peptide sequence: QPELAMMHCSYWDHDSK, peptide start residue: 350) (UniProt P58012)”, the log2 fold change was -0.242.

As to “HBG1 (peptide sequence: VNVEDAGGETLGR, peptide start residue: 19) (UniProt P69891)”, the log2 fold change came to 0.0628.

Regarding “PRAME (peptide sequence: HVMNPLETLSITNCR, peptide start residue: 319) (UniProt P78395)”, the log2 fold change was -0.173.

In the case of “MRPS22 (peptide sequence: VPINDVLAEDK, peptide start residue: 136) (UniProt P82650)”, the log2 fold change is 0.344. Take “UniProt P61513 (peptide sequence: AVGIWHCGSCMK, peptide start residue: 51)”: the log2 fold change came out at 0.0451. To “UniProt P61927 (peptide sequence: RAAVAASSSS, peptide start residue: 88)” belongs 0.0347; to “PER3 (peptide sequence: EEEKWEAQSEGHPFITSR, peptide start residue: 903) (UniProt P56645)”, 0.318; to “PAFAH1B2 (peptide sequence: IIVLGLLPR, peptide start residue: 134) (UniProt P68402)”, -0.422. In the case of “UniProt P61129 (peptide sequence: GNGSGHIGSSVGGAK, peptide start residue: 790)”, the log2 fold change was determined as 0.467. To “NDUFA6 (peptide sequence: IELEETIKVWK, peptide start residue: 88) (UniProt P56556)” belongs 0.605. For “HBA1 (peptide sequence: VLSPADKTNVK, peptide start residue: 2) (UniProt P69905)”, the log2 fold change is -0.111. On to “MRPS35 (peptide sequence: KHCEALKDFCTEWPAALDSDEK, peptide start residue: 121) (UniProt P82673)”, for which the log2 fold change is 0.667. As for “CRADD (peptide sequence: TMLLLDILPSRGPK, peptide start residue: 54) (UniProt P78560)”, the figure is -0.457. To “UniProt P61978 (peptide sequence: NTDEMVELRILLQSKNAGAVIGK, peptide start residue: 38)” belongs 0.397; to “UniProt P57076 (peptide sequence: EPIISSEEQK, peptide start residue: 231)”, -0.41. To “DSTN (peptide sequence: VRKCSTPEEIK, peptide start residue: 20) (UniProt P60981)” belongs 0.343; to “UniProt P62241 (peptide sequence: QWYESHYALPLGRK, peptide start residue: 111)”, 0.0708; to “FKBP1A (peptide sequence: RGQTCVVHYTGMLEDGKK, peptide start residue: 19) (UniProt P62942)”, 0.12. Consider “EEF1A1 (peptide sequence: EHALLAYTLGVK, peptide start residue: 135) (UniProt P68104)”, for which the log2 fold change came out at 0.148.

As to “EIF3B (peptide sequence: GTYLATFHQR, peptide start residue: 346) (UniProt P55884)”, the log2 fold change was -0.334.

With “SLC12A2 (peptide sequence: FQVDLVSENAGR, peptide start residue: 81) (UniProt P55011)”, the log2 fold change was determined as 0.0994.

Consider “P62892 (peptide sequence: QKQNRPIPQWIR, peptide start residue: 17) (UniProt P62891)”, for which the log2 fold change was -0.0389. In the case of “ZNF280A (peptide sequence: LSTSDINSR, peptide start residue: 168) (UniProt P59817)”, the log2 fold change was -0.245. As to “LMO4 (peptide sequence: CFTCSTCR, peptide start residue: 112) (UniProt P61968)”, the log2 fold change came out at 0.348.

Regarding “RAB2A (peptide sequence: KEEGEAFAR, peptide start residue: 131) (UniProt P61019)”, the log2 fold change was -0.235.

Turning to “SSBP2 (peptide sequence: ETCEHSSEAK, peptide start residue: 80) (UniProt P81877)”, the log2 fold change was -0.0672. With “UniProt P62258 (peptide sequence: IISSIEQKEENKGGEDK, peptide start residue: 62)”, the log2 fold change was -0.58. As for “UniProt P61353 (peptide sequence: YSVDIPLDKTVVNK, peptide start residue: 85)”, the log2 fold change is -0.08.

As to “EPPK1 (peptide sequence: AEIIDQDLYERLEHGQATAK, peptide start residue: 575) (UniProt P58107)”, the log2 fold change worked out at 0.438. As for “UniProt P61163 (peptide sequence: EGYDFHSSSEFEIVK, peptide start residue: 201)”, the log2 fold change is 0.51.
